Source: patent US20150004174A1
These are yes or no findings as the source states them, for the method shown. Binding can be weak; no strength is given.

Biological target: cynomolgus monkey PCSK9, V5-6xHis tagged (cynomolgus monkey)
Test: BIAcore solution equilibrium assay; 0.3, 1 and 3 nM cyno PCSK9 mixed with 21B12.1 in solution, free PCSK9 measured on immobilized 21B12

B1: 21B12 human IgG4 (from hybridoma) (antibody, V domains shown)
VH: QVQLVQSGAEVKKPGASVKVSCKASGYTLTSYGISWVRQAPGQGLEWMGWVSFYNGNTNYAQKLQGRGTMTTDPSTSTAYMELRSLRSDDTAVYYCARGYGMDVWGQGTTVTVSS
VL: QSALTQPASVSGSPGQSITISCTGTSSDVGGYNSVSWYQQHPGKAPKLMIYEVSNRPSGVSNRFSGSKSGNTASLTISGLQAEDEADYYCNSYTSTSMVFGGGTKLTVLQ
binding: binds
